Among the data in PMC7819943, “Rice protein-binding microarrays: a tool to detect cis-acting elements near promoter regions in rice” are binding signal values, retold here.

Protein sequences, listed by entry. Tags and fused reporters are not part of them.
UniProt Q0JBA9, entry or part of it: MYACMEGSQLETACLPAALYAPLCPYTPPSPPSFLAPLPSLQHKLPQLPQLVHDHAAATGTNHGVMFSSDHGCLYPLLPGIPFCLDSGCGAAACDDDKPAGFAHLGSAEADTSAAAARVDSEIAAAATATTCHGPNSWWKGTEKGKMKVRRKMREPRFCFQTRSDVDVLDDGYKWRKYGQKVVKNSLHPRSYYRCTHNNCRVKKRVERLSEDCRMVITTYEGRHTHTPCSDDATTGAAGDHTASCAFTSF

Some of the results follow.

The target in the assay is OsWRKY34 (Oryza sativa, UniProt Q0JBA9 1-250). Nature of the assay: protein-binding microarray (RPBM); PBS, 2% BSA, 51.3 ng/ul salmon testes DNA, 50 uM zinc acetate, 200 nM TF, 25 C, 1 h; high values mean tight binding. To be noted: protein: recombinant; tags: N-terminal polyhistidine and DsRed monomer fusion (pET32a); label: CyDye5-dUTP incorporated in the synthesized complementary strand; 3' TTTTT single-stranded linker to array surface; dsDNA, one strand shown. The gist of the method: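 The binding signal is fluorescence intensity per array feature (arbitrary units). Readings came from an Axon 4000B scanner after a washed, 2% BSA-blocked, double-stranded custom Agilent array had been incubated for 1 h at 25 °C with 200 nM protein and 50 µM zinc acetate. The protein was a Ni–NTA-purified transcription factor fused N-terminally to polyhistidine and DsRed, expressed in E. coli BL21-CodonPlus.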
In the case of “GTAGTGTATAACTACGACGCATTCCTTTCGCATGTACCCACGGAGTCACCTAGTGCAG”, the binding signal is 8540 fluorescence intensity (a.u.).
Regarding “ACACGTTTTGGAGTTTTAACATTAGACCATTTTAGTTTTTCGGAGTCACCTAGTGCAG”, the binding signal is 10100 fluorescence intensity (a.u.).
With “TTGTTTATCGTTTTCTTGTTATTTTATGGATTTTATTGAACGGAGTCACCTAGTGCAG” the figure was 9370 fluorescence intensity (a.u.).
For “ACACATGCCTGAACAAATGTCACGACCTCTCTCTCTCTCTCGGAGTCACCTAGTGCAG”, the binding signal was 9980 fluorescence intensity (a.u.).
The result for “GAAAATTTCCACTGCGATCCTCTTCAACATCTTCGTTTCCCGGAGTCACCTAGTGCAG” reads 8160 fluorescence intensity (a.u.); that for “ACCTGTATTCCCGCACACGAGCTGACTTTGCATTTATTTACGGAGTCACCTAGTGCAG”, 16200 fluorescence intensity (a.u.).
With “TCTGCGCGCTCTCCAGCGTCGCCCTCGCCAGGACGGCCGGCGGAGTCACCTAGTGCAG” the figure was 8710 fluorescence intensity (a.u.); with “TCTTCTGAAGTTAGTACTACCCCACCACAGCACCACTTGCCGGAGTCACCTAGTGCAG”, 8550 fluorescence intensity (a.u.); with “CCCGAATCAAACAAACAACACATAACTCTTTCGTTTGATCCGGAGTCACCTAGTGCAG”, 8420 fluorescence intensity (a.u.).
The result for “TACCACTTCCTCGCATTTTGGTTTGTTTTGTTATAGAAGACGGAGTCACCTAGTGCAG” reads 11500 fluorescence intensity (a.u.); that for “CCCGTCTCCATTTCTTTTGTCTCTCTCTCGCTCTTCAAATCGGAGTCACCTAGTGCAG”, 13400 fluorescence intensity (a.u.); that for “CACTTTTTCATTCATAGGATGTTACATCAAGATCTGTGTTCGGAGTCACCTAGTGCAG”, 8100 fluorescence intensity (a.u.).
Turning to “TTTCCATTTCTTGCCGTTTTCTTCCACATTCTTCTCTGCTCGGAGTCACCTAGTGCAG”, the binding signal was 15000 fluorescence intensity (a.u.).
With “ATCTTTTGCTGTTGTAATAGAACTAACACACTCTTTCATCCGGAGTCACCTAGTGCAG”, the binding signal was 8410 fluorescence intensity (a.u.).
Turning to “TCCAATACCACCTCCTTCGCTTGCATGATTGCCTCCAAAACGGAGTCACCTAGTGCAG”, the binding signal is 9650 fluorescence intensity (a.u.).
The result for “TGACAGCGGTAGATGTGGGTGGTGGTGGGAGGGGAGGATGCGGAGTCACCTAGTGCAG” reads 16200 fluorescence intensity (a.u.); that for “GGCGGTGGTGGTGGAGGAGGAGCGGGACGCGCGCGCCGCGCGGAGTCACCTAGTGCAG”, 12000 fluorescence intensity (a.u.); that for “TTGCTCTTCCATTCTTTTGCCCTTCACTCCTCTCTCATCTCGGAGTCACCTAGTGCAG”, 10700 fluorescence intensity (a.u.).
Turning to “TGTAGTATTTTTCCCCGACATTTACATATTGACTTTTCGACGGAGTCACCTAGTGCAG”, the binding signal was 8940 fluorescence intensity (a.u.).
As for “AAACTGATACCTATTTTCCTTCACATAAGTGCCGCCTGTTCGGAGTCACCTAGTGCAG”, the binding signal was 8840 fluorescence intensity (a.u.).
Turning to “ACCCCGGTGTTGCCACCTAACCCATCGATCACCTACTGCCCGGAGTCACCTAGTGCAG”, the binding signal is 8060 fluorescence intensity (a.u.).
With “GGGAATGATACGCGTGGGCCCCACCATTTTTTATTAATTTCGGAGTCACCTAGTGCAG” the figure was 8890 fluorescence intensity (a.u.).
The result for “TCCACTGGGAGATGTCTTTGTATTATTGACCGAGCTTGTCCGGAGTCACCTAGTGCAG” reads 8830 fluorescence intensity (a.u.); that for “ATTGCTCCATATGCTTCCTTTCTTCCGCTAGGACCGCTACCGGAGTCACCTAGTGCAG”, 11500 fluorescence intensity (a.u.); that for “TGGTGGCGTCTGTATTGGGTTTCTTTCTCCAAGTTATATTCGGAGTCACCTAGTGCAG”, 9710 fluorescence intensity (a.u.).
For the sequence “CGAAAGATTTTTTCTTATCTCTCACTCGATTTTCTCACTCCGGAGTCACCTAGTGCAG”, the binding signal is 8660 fluorescence intensity (a.u.).
With “TATCCTTTTGCATTAATTATTGTTACTGATTTTTCTCGTCCGGAGTCACCTAGTGCAG”, the binding signal is 10000 fluorescence intensity (a.u.).
The result for “ATCTGTGTGTATGTTTGTGGGTTTCTGTCCATTGAGATATCGGAGTCACCTAGTGCAG” reads 12100 fluorescence intensity (a.u.); that for “GCTCCTCGTCGCCACCGATCCCCGCCGCCGGCTTGCCTCACGGAGTCACCTAGTGCAG”, 9340 fluorescence intensity (a.u.); that for “AAGAGGACCAAAACCAACCCCATCGCCCGAGAGCCCCAAACGGAGTCACCTAGTGCAG”, 8150 fluorescence intensity (a.u.).
The result for “ATCATGCATGATATAGTGCAGTACCCTTTTTTTTGTGTATCGGAGTCACCTAGTGCAG” reads 9960 fluorescence intensity (a.u.); that for “GTGGAGGCGGAAGAGTGAGCGCGGGAGGAGGAGGGGAGGGCGGAGTCACCTAGTGCAG”, 11900 fluorescence intensity (a.u.); that for “TCCTGCCTCCTCCAAAATTTTCTTCTGTTCATCCATTTTGCGGAGTCACCTAGTGCAG”, 10200 fluorescence intensity (a.u.).
For the sequence “ATCTTCTGATATTCATATACCATGTTCCTACACTTATGACCGGAGTCACCTAGTGCAG”, the binding signal is 8290 fluorescence intensity (a.u.).
The result for “GTGGGCTTGTCATTTGTCAACACTGCAGTACAGCACCGTTCGGAGTCACCTAGTGCAG” reads 9120 fluorescence intensity (a.u.); that for “TGGATGGAGGTCGGGGATGACAGGTGGGGACCTGTCGGGGCGGAGTCACCTAGTGCAG”, 11000 fluorescence intensity (a.u.).
With “ATTGCCATCTGATCTGATCCTTTATACAGCTATATACCTCCGGAGTCACCTAGTGCAG” the figure was 10700 fluorescence intensity (a.u.); with “GTGGGGTTGGAGGAGGGAGGGAGCTAGCTATAGTTGCTAGCGGAGTCACCTAGTGCAG”, 9980 fluorescence intensity (a.u.); with “TTTTTATATACTTGCCAGGCTTTTCTTGTAGTAAGTTCCTCGGAGTCACCTAGTGCAG”, 8020 fluorescence intensity (a.u.).
For the sequence “TTATTAATTGTTACATTTTCTTTGTTTATATATACGCACACGGAGTCACCTAGTGCAG”, the binding signal was 9100 fluorescence intensity (a.u.).
With “CACACAGCGCAGTCGCTCTCCCTCGCCTCGCTCACCTGCGCGGAGTCACCTAGTGCAG” the figure was 10300 fluorescence intensity (a.u.).
“TCTGTCTTGCTGTTCCCTCGATCTTGCACACACCAAAGTTCGGAGTCACCTAGTGCAG”: the binding signal is 8490 fluorescence intensity (a.u.).
As to “AGCACTAGTTCACCACTTGATGGCTCAAGCACACTACATACGGAGTCACCTAGTGCAG”, the binding signal is 8340 fluorescence intensity (a.u.).
With “GCAAATATTTAATTAATCACACGTTAATGTACTGCTTCGTCGGAGTCACCTAGTGCAG” the figure was 10200 fluorescence intensity (a.u.).
In the case of “TGCTCGGCCTCGTCGTGTCCGCTCTCGTCCCTGCCCTCCGCGGAGTCACCTAGTGCAG”, the binding signal is 9720 fluorescence intensity (a.u.).
For the sequence “GCCTTGCCGTGAAGCTTCGAAATTTAACTCTTTCCCGCGTCGGAGTCACCTAGTGCAG”, the binding signal is 8940 fluorescence intensity (a.u.).
Regarding “AATTCAGCTTTGTCAAACATTACCTAATTTCATATATCTACGGAGTCACCTAGTGCAG”, the binding signal is 8330 fluorescence intensity (a.u.).
With “GGATAGACATGCTAACTATTCTCTTACACGAGTATTACATCGGAGTCACCTAGTGCAG” the figure was 8580 fluorescence intensity (a.u.); with “ATCCTGTCTCCGAACTCCCTACACTTGTTGTTTTCATCTTCGGAGTCACCTAGTGCAG”, 12000 fluorescence intensity (a.u.).
As to “GTAGGGGAGGGGTTAGCGCTAGGGAACGCGATCGAGCACCCGGAGTCACCTAGTGCAG”, the binding signal was 11900 fluorescence intensity (a.u.).
The result for “CTCGTATAGGAGTAGTGTCCAGTTTTAGCTCCATTTTTTTCGGAGTCACCTAGTGCAG” reads 8040 fluorescence intensity (a.u.); that for “GGGAGGGAGAGCTTGTAGACACGGCCGTTGTTGCAGGTGACGGAGTCACCTAGTGCAG”, 14200 fluorescence intensity (a.u.).
In the case of “GAATCTAGATAACTCCATGTTCATATTCGTGTTGTTTTTTCGGAGTCACCTAGTGCAG”, the binding signal was 12100 fluorescence intensity (a.u.).
With “CTTTCAGTCACTTTTCCACTGGCTTACGAGTTCTAACAACCGGAGTCACCTAGTGCAG” the figure was 9310 fluorescence intensity (a.u.).
